Laboratory results taken from PMC4017264 (Molecular Cell, 2014).

Test system: endogenous LUBAC complex
Assay: size exclusion chromatography (gel filtration) analysis of cell extracts
Set-up: species or system human

OTULIN: full-length OTULIN (aa 1–352), Met1-specific deubiquitinase
elution peaks of endogenous OTULIN (HEK293ET lysate prepared in absence of phosphatase inhibitors): two peaks at 600 and 40 kDa
elution size range of the majority of endogenous OTULIN (HEK293ET lysate, phosphatase inhibitors present): 100–150 kDa
fraction of endogenous OTULIN eluting at ∼100–150 kDa (HEK293ET lysate, phosphatase inhibitors present, Superdex 200): > 95%
